Test [1] deals with ATPase domain of Topo N, M-PFC fusion from pUAB300-Topo N (M. smegmatis). As to the kind of experiment: split reporter.
For test [2], the target named is MfpB, M-PFC fusion from pUAB300-mfpB (M. smegmatis). As to the kind of experiment: split reporter.

Results are given in words; binding and its absence hold for the method and conditions named. Binding seen in cells or lysates may run through a third protein. For some assays here: Binding can be weak; no strength is given. Where a sequence is shown, tags or fusion partners need not be part of it.

B1: Mycobacterium fluoroquinolone resistance protein A (MfpA), M-PFC fusion from pUAB400-mfpA (protein, UniProt A0QSY0 1-191)
chain: MRIGANGDETVWADEEFAGRDFRDEDLSRIRTERVVFTECDFSGVDLSESEHHGSAFRNCTFRRSTIWHSTFTNCSLLGSVFTECRIRPVTFVECDFTLAVLGGCDLRAVDLSDCRLREVSLVGADLRKAVLRRADLTGSRVQDARLEEADLRGTRVDPTFWTTAKVRGAKIDIEQALAYAAAHGLAVHGG
Consider B1, for which the binding entry in test [1] is reported as “no binding”; in test [2] it was “binds”.
